## Results of single-concentration screens

A: 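Whole-parasite assay of Trypanosoma brucei over 72 hours; the read-out is not stated. Concentration: 30 µM. The record gives no direction; compounds that gave an IC50 in retests scored well above the rest, so higher reads as stronger inhibition. Values scatter widely below zero; nearly all retest evidence comes from the higher of the two concentrations used. Of about 64,000 compounds tested this way, about 940 (1.5%) reached 50% or more in at least one test.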
B: 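Assay of Toxoplasma gondii numbers, read through their beta-galactosidase reporter with a colour substrate. Concentration: 10 µM. Higher reads as fewer parasites (inferred from which compounds were picked for retests). Of about 67,000 compounds tested this way, about 260 (0.38%) reached 50% or more in at least one test.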
C: 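Cell assay of Leishmania donovani living inside macrophages; the read-out is not stated. Concentration: 30 µM. Direction is inferred from retests: higher values go with stronger inhibition. About 69,000 compounds were tested under these conditions; 1.5% (about 1,000) showed 50% or more at least once.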

Each number is a percent effect as filed.
The record does not define 0% and 100%; most values in the screen are far below 50% and negative numbers occur (in some assays of this library far below -100).
Compounds were drawn at random from those tested, without regard to their results.

SMILES: Cc1noc(C)c1C(=O)N(C)C(C)c1ccc(S(C)(=O)=O)cc1 (stereo not given)
A: -6.5%
B: -1.614%
C: -5.8%

SMILES: Cc1cccc(C)c1NC(=O)CC(CN1CCN(C)CC1)C(=O)O (stereo not given)
A: -4.399%
B: -7.308%
C: 21.96%

SMILES: O=C(c1ccc2c(c1)CCCC2)N1CCOCC1c1ncon1 (stereo not given)
A: 5.858%
B: 5.686%
C: 0.06757%

SMILES: CCOC(=O)N1CCN(C(=O)C(CC)n2cccn2)CC1 (stereo not given)
A: -33.5%
B: 7.175%
C: 20.54%

SMILES: COC(=O)C1=C(C)N=C2SCC(=O)N2C1c1cnn(C)c1C (stereo not given)
A: -3.713%
B: 27.76%
C: -11.45%

SMILES: CN(CC(=O)N1CCc2[nH]c3ccccc3c2C1)CC1OCCO1
A: -57.54%
C: -16.14%

SMILES: COC(=O)c1ccc(CNC(C)c2ccc(S(C)(=O)=O)cc2)cc1 (stereo not given)
A: 1.841%
B: -18.09%
C: 26.78%

SMILES: CCC(=O)N1CCCC1c1n[nH]cc1-c1ccccc1F (stereo not given)
B: -1.809%
C: 20.66%

SMILES: O=C1CCC(=O)N1c1nn(Cc2ccccc2)cc1Cl
A: -7.724%
B: 11.6%
C: 9.956%

SMILES: COCCn1c2c(ccc1=O)CCN(C(=O)C1CC=CC1)CC2
A: -9.092%
B: -6.315%
C: 20.23%

SMILES: Cc1noc(C)c1CC(=O)N1CCCC(Cc2ccccn2)C1 (stereo not given)
A: -14.25%
B: 0.9098%
C: 42.19%

SMILES: Cc1cccc(-c2nnc(C(C)N3CCn4c(C)nnc4C3)o2)c1 (stereo not given)
A: -9.135%
B: -12.96%
C: 13.47%

SMILES: Cn1cc(C2CCCN2C(=O)c2ccc(OCC3CC3)nc2)cn1 (stereo not given)
A: -16.55%
B: -12.81%
C: 16.94%

SMILES: CN(C)C(=O)CN1C(=O)CCC12CCN(Cc1cccs1)CC2.O=C(O)C(F)(F)F
A: -53.05%
B: 11%
C: 1.681%

SMILES: Cc1c(C(=O)NCCC(=O)N2CCCC2)cccc1-c1ccccn1
A: -45.05%
B: 1.94%
C: 1.108%

SMILES: CC(C)N(C)S(=O)(=O)c1ccc2c(c1)CCN(C(=O)c1ccccn1)C2
A: -24.13%
B: 0.5866%
C: 3.263%

SMILES: COc1cccc(CN(C)Cc2nc3cc(C)ccc3[nH]2)c1O
A: -39.86%
B: -35.69%
C: 25.94%

SMILES: O=C1NCCN1C1CCN(CCOc2cccc3ccccc23)CC1
B: -13.38%
C: 37.12%

SMILES: Cc1nc(CN(C)C2CCN(CCCOc3ccccc3C)C2)no1 (stereo not given)
B: 15.66%
C: 24.61%

SMILES: CCSCCC(=O)NCCn1nc2ccccn2c1=O
A: -4.514%
B: 2.308%
C: 0.9619%

The values are deposited in ChEMBL (CHEMBL3988442, “University of Dundee, Small-Polar-MMV Screening Library” (2021)).